# Experimental data taken from PubChem BioAssay AID445 (National Center for Advancing Translational Sciences (NCATS), 2006).
# This is one part of the list. The main result of the screen is listed elsewhere. These columns were measured beside it and carry no call. The list favours compounds with an active or inconclusive main result. Potencies come from curve fits of mixed quality, noted in brackets.
# Assay: IkB Signaling
# Conditions: ABC-DLBCL IkBa-CBG/CBR dual luciferase ratio (green luciferase fused to IkBa over red control in OCI-Ly3 lymphoma cells), 4 h
# Summary of the method: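 Luminescence ratio of IκBα-fused green versus native red beetle luciferase in OCI-Ly3 cells, 4 h post-doxycycline with compound; red signal alone, scaled from basal (0%) to zero light (-100%), flagged nonspecific or cytotoxic effects.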
# [1] = measured here: control luc red channel unless noted
smiles,measurement,setting,value
CCOc1ccc(CC(=O)NCC(c2cccs2)S(=O)(=O)c2ccc(F)c(C)c2)cc1 (stereo not given),AC50,[1],"15.8 µM [falling, single point]"
CCN(CC)c1nc(N)c2c(N)nc3c(c2c1C#N)CC(c1ccccc1)O3 (stereo not given),AC50,[1],"25.1 µM [falling, partial curve]"
O=C(Nc1ncc(Cc2ccccc2)s1)c1cccs1,AC50,[1],"10 µM [falling, partial curve]"
CCS(=O)(=O)c1cccc(C(=O)Nc2ccc(-c3nc4ccccc4s3)c(O)c2)c1,AC50,[1],"12.6 µM [rising, partial curve]"
Cc1cccc(NC(=O)Cn2c(=O)c3cccn3c3ccccc32)c1C,AC50,[1],"15.8 µM [falling, partial curve]"
O=C1NCCCC1C(=O)Nc1cccc(C(F)(F)F)c1 (stereo not given),AC50,[1],"15.8 µM [rising, partial curve]"
CC1CCN(C(=O)Cn2c(SCC(=O)Nc3ccc(F)cc3)nc3ccccc32)CC1,AC50,[1],"20 µM [falling, partial curve]"
COc1ccc(OC)c(CNC(=O)CSc2c3c(nc4cc(Cl)ccc24)CCCC3)c1,AC50,[1],"25.1 µM [falling, single point]"
Cc1cc(S(=O)(=O)Nc2ccc(O)c(Sc3nc4ccccc4s3)c2)ccc1Cl,AC50,[1],"25.1 µM [falling, partial curve]"
Cc1ccc(CCNC(=O)CN(c2ccc(C(C)C)cc2)S(=O)(=O)c2c(C)nn(C)c2C)cc1,AC50,[1],"10 µM [falling, partial curve]"
c1ccc2c(c1)nc(Nc1ccc3c(c1)OCO3)c1nnnn12,AC50,[1],"10 µM [falling, partial curve]"
c1cc2c3c(cccc3c1)C(N1CCCCC1)=N2,AC50,[1],"15.8 µM [falling, partial curve]"
O=C(COn1nnc2ccccc21)NCC1CCCCC1,AC50,[1],"0.158 µM [rising, full curve, poor fit]"
CSc1nnc2n(-c3cccc(C)c3)c(=O)c3c4c(sc3n12)CCCC4,AC50,[1],"39.8 µM [falling, single point]"
COc1ccccc1N1CCN(C(=O)c2ccc(Nc3nc4ccccc4n4nnnc34)cc2)CC1,AC50,[1],"3.16 µM [falling, full curve]"
CCn1c(=O)n(CC)c2cc(N3CCCC3)c(NC(=O)Nc3cc(C)cc(C)c3)cc21,AC50,[1],"15.8 µM [falling, single point]"
Cc1c(NC(=O)c2ccc(COc3ccc4ccccc4c3)o2)c(=O)n(-c2ccccc2)n1C,AC50,[1],"3.16 µM [falling, partial curve]"
O=C(Nc1ccccc1F)c1oc2ccccc2c1NC(=O)c1c(F)cccc1F,AC50,[1],"20 µM [falling, partial curve, poor fit]"
Cc1cccn2c(=O)cc(COc3cccc(NC(=O)c4cccc(Cl)c4)c3)nc12,AC50,[1],"5.01 µM [falling, partial curve]"
CCn1c(CN2CCCCC2)nc2cc(NC(=O)c3cccc([N+](=O)[O-])c3)ccc21,AC50,[1],"10 µM [falling, partial curve]"
Cc1ccc(CCNC(=O)CSCc2nc(-c3ccc(C)cc3)oc2C)cc1,AC50,[1],"20 µM [falling, partial curve]"
Cc1ccc(CNC(=O)c2nn(C)c3c2CSc2ccc(C)cc2-3)cc1,AC50,[1],"10 µM [falling, partial curve]"
O=C(NCCc1ccco1)c1nn(Cc2ccccc2)c(=O)c2ccccc12,AC50,[1],"7.94 µM [falling, partial curve]"
CCN(Cc1ccccc1)C(=O)Cn1c(=O)n(-c2cccc(C)c2)c(=O)c2c1c1cc(OC)ccc1n2C,AC50,[1],"0.2 µM [falling, partial curve]"
CC(C)c1ccc(OCC(=O)NCC(c2ccc(Cl)cc2)N2CCOCC2)cc1 (stereo not given),AC50,[1],"31.6 µM [falling, single point]"
Cc1nc2c(C(=O)NCCc3ccc(Cl)cc3)cnn2c(C)c1Cc1ccc(F)cc1,AC50,[1],"31.6 µM [falling, single point]"
COc1ccc(N2C(N)=C(C#N)C(c3cc(CN4CCOCC4)cs3)C3=C2CCCC3=O)cc1 (stereo not given),AC50,[1],"20 µM [falling, partial curve]"
CCn1c(Sc2ccc(N)cc2Cl)nc2ccccc21,AC50,[1],"15.8 µM [falling, partial curve]"
CC(=O)[C@@]1(O)Cc2c(O)c3c(c(O)c2[C@H](O[C@H]2C[C@H](N)[C@H](O)[C@H](C)O2)C1)C(=O)c1ccccc1C3=O,AC50,measured here: IkB-luc green channel,"3.16 µM [falling, full curve]"
same,AC50,measured here: control luc red channel,"1.26 µM [falling, full curve]"
Nc1nc2n[nH]nc2c(=O)[nH]1,AC50,[1],"501 nM [rising, full curve] [measured here: IkB-luc green channel]"
CC1(C)Cc2c(sc3nc(-c4cccs4)n(N)c(=O)c23)CO1,AC50,[1],"10 µM [falling, partial curve]"
O=C(Nc1ccc2nc(SCC(=O)N3CCCc4ccccc43)sc2c1)c1ccc(Cl)cc1,AC50,[1],"2.51 µM [falling, partial curve]"
Cc1ccc(-n2ncc(C(=O)NC3CCN(Cc4ccccc4)CC3)c2C2CCN(C(=O)OC(C)(C)C)CC2)cc1C,AC50,[1],"20 µM [falling, partial curve]"
CCC(C(=O)NCCc1cc(OC)ccc1OC)n1nc(C)c2c(C)n(-c3ccccc3)nc2c1=O (stereo not given),AC50,[1],"1.58 µM [falling, full curve, poor fit]"
CC(Sc1nc(=O)cc(N)n1CCc1ccccc1)C(=O)Nc1cccc(Cl)c1 (stereo not given),AC50,[1],"15.8 µM [falling, partial curve]"
COc1ccc(C(=O)Nc2nc3n(n2)C(c2ccc(Cl)cc2)C=C(c2ccccc2)N3)cc1OC (stereo not given),AC50,[1],"7.94 µM [falling, full curve]"
COc1ccccc1N1CCN(S(=O)(=O)c2c(C)sc3ncn(CC(=O)Nc4ccc(C)cc4Br)c(=O)c23)CC1,AC50,[1],"3.98 µM [falling, single point]"
CCN(CC)S(=O)(=O)c1ccc2c(c1)c(=O)c(C(=O)N1CCN(c3cccc(Cl)c3)CC1)cn2C,AC50,[1],"1.58 µM [falling, full curve]"
CCc1ccc(C(=O)c2cn(CC(=O)Nc3ccc4c(c3)OCO4)c3ccc(F)cc3c2=O)cc1,AC50,[1],"3.16 µM [falling, partial curve]"

# Laid out differently: results already given.
smiles	measurement	setting	value
Cc1ccc(CCNC(=O)CN(c2ccc(C(C)C)cc2)S(=O)(=O)c2c(C)nn(C)c2C)cc1	AC50	[1]	10 µM [falling, partial curve]
CC(=O)[C@@]1(O)Cc2c(O)c3c(c(O)c2[C@H](O[C@H]2C[C@H](N)[C@H](O)[C@H](C)O2)C1)C(=O)c1ccccc1C3=O	AC50	measured here: IkB-luc green channel	3.16 µM [falling, full curve]
